# Laboratory results taken from the supplement of paper PMC4604168 (melanoma cell lines).
# This is one part of the list. Many values rest on one well or one pass, so single values are uncertain.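 Imaging used 1,536-well plates; nuclei positive for cleaved PARP by antibody were divided by total DNA-stained nuclei to yield the apoptosis fraction. Doses for screening kept most cells viable, and cell lines differ markedly in resting and induced cleaved-PARP levels.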
# What was measured:
# Test in all cases: cleaved PARP positive nuclei fraction relative to DMSO control; melanoma cells; higher = more apoptosis
# Conditions in all cases: library dose: low library concentration; 72 h
# 501Mel = tested on: 501Mel
# A101D = tested on: A101D
# A2058 = tested on: A2058
# A375 = tested on: A375
# C32 = tested on: C32
# CBRC008 = tested on: CBRC008 (line from a melanoma biopsy)
# CBRC014 = tested on: CBRC014 (line from a melanoma biopsy)
# CBRC016 = tested on: CBRC016 (line from a melanoma biopsy)
# CBRC017 = tested on: CBRC017 (line from a melanoma biopsy)
# CBRC034 = tested on: CBRC034 (line from a melanoma biopsy)
# COLO792 = tested on: COLO792
# COLO800 = tested on: COLO800
# COLO829 = tested on: COLO829
# G361 = tested on: G361
# IPC-298 = tested on: IPC-298
# IST-MEL1 = tested on: IST-MEL1
# LB2518-MEL = tested on: LB2518-MEL
# LOXIMVI = tested on: LOXIMVI
# MEL-HO = tested on: MEL-HO
SMILES,cleaved PARP positive nuclei fraction (501Mel) [%],cleaved PARP positive nuclei fraction (A101D) [%],cleaved PARP positive nuclei fraction (A2058) [%],cleaved PARP positive nuclei fraction (A375) [%],cleaved PARP positive nuclei fraction (C32) [%],cleaved PARP positive nuclei fraction (CBRC008) [%],cleaved PARP positive nuclei fraction (CBRC014) [%],cleaved PARP positive nuclei fraction (CBRC016) [%],cleaved PARP positive nuclei fraction (CBRC017) [%],cleaved PARP positive nuclei fraction (CBRC034) [%],cleaved PARP positive nuclei fraction (COLO792) [%],cleaved PARP positive nuclei fraction (COLO800) [%],cleaved PARP positive nuclei fraction (COLO829) [%],cleaved PARP positive nuclei fraction (G361) [%],cleaved PARP positive nuclei fraction (IPC-298) [%],cleaved PARP positive nuclei fraction (IST-MEL1) [%],cleaved PARP positive nuclei fraction (LB2518-MEL) [%],cleaved PARP positive nuclei fraction (LOXIMVI) [%],cleaved PARP positive nuclei fraction (MEL-HO) [%]
"Cc1cc(Nc2cc(N3CCN(C)CC3)nc(Sc3ccc(NC(=O)C4CC4)cc3)n2)n[nH]1 [Tozasertib] + CC1(C)CCC(c2ccc(Cl)cc2)=C(CN2CCN(c3ccc(C(=O)NS(=O)(=O)c4ccc(N[C@H](CCN5CCOCC5)CSc5ccccc5)c(S(=O)(=O)C(F)(F)F)c4)cc3)CC2)C1 [ABT263] (first compound 0.006 µM, partner dose 0.4 µM)",219,107,49.7,238,881,258,929,170,366,70.7,297,115,145,294,242,151,155,144,99.7
"Cc1ccc(Nc2nccc(N(C)c3ccc4c(C)n(C)nc4c3)n2)cc1S(N)(=O)=O [Pazopanib] + CCN(CC)CCNC(=O)c1c(C)[nH]c(/C=C2\C(=O)Nc3ccc(F)cc32)c1C [sunitinib] (first compound 0.4 µM, partner dose 0.4 µM)",104,90.4,80.8,269,74.3,110,108,72.6,88.1,66.5,69.8,101,127,134,106,124,165,72.1,88
"COc1cc([C@@H]2c3cc4c(cc3[C@@H](O[C@@H]3O[C@@H]5CO[C@@H](C)O[C@H]5[C@H](O)[C@H]3O)[C@H]3COC(=O)[C@H]23)OCO4)cc(OC)c1O [etoposide] + CN(c1ncccc1CNc1nc(Nc2ccc3c(c2)CC(=O)N3)ncc1C(F)(F)F)S(C)(=O)=O [PF562271] (first compound 0.02 µM, partner dose 0.08 µM)",89.6,47.7,173,134,78.9,119,102,138,95.4,131,129,115,97.4,124,30.4,93.1,57.4,,174
"Cc1cn(-c2cc(NC(=O)c3ccc(C)c(Nc4nccc(-c5cccnc5)n4)c3)cc(C(F)(F)F)c2)cn1 [nilotinib] + C[C@]1(c2nc3c(C(N)=O)cccc3[nH]2)CCCN1 [Veliparib] (first compound 0.2 µM, partner dose 1.4 µM)",184,90,158,254,76.2,42.2,78.2,83.6,74.6,51.1,74,91.4,90.3,45.7,89.4,126,60.4,161,102
"COc1cc([C@@H]2c3cc4c(cc3[C@@H](O[C@@H]3O[C@@H]5CO[C@@H](C)O[C@H]5[C@H](O)[C@H]3O)[C@H]3COC(=O)[C@H]23)OCO4)cc(OC)c1O [etoposide] + CCCCCCCCCCCCCCCCCCOP(=O)([O-])OC1CC[N+](C)(C)CC1 [Perifosine] (first compound 0.02 µM, partner dose 0.4 µM)",159,41.6,138,52,73.6,80.1,,39.4,102,26.6,51.5,132,64.9,24.9,129,132,94.8,99.2,119
"CC[C@]1(O)C[C@H]2CN(CCc3c([nH]c4ccccc34)[C@@](C(=O)OC)(c3cc4c(cc3OC)N(C=O)[C@H]3[C@@](O)(C(=O)OC)[C@H](OC(C)=O)[C@]5(CC)C=CCN6CC[C@]43[C@@H]65)C2)C1 [vincristine] + Cn1cc(/C=C2\C(=O)Nc3cccnc32)c2ccccc21 [GW441756] (first compound 0.0001 µM, partner dose 0.4 µM)",57.5,8.85,1330,,105,151,90.3,128,93.8,,72.4,66.6,30.8,89.6,136,97,128,166,
"Cc1cn(-c2cc(NC(=O)c3ccc(C)c(Nc4nccc(-c5cccnc5)n4)c3)cc(C(F)(F)F)c2)cn1 [nilotinib] + C[C@@H](Oc1cc(-c2cnn(C3CCNCC3)c2)cnc1N)c1c(Cl)ccc(F)c1Cl [Crizotinib] (first compound 0.2 µM, partner dose 0.2 µM)",81.9,81.9,109,28.3,63.4,30.2,114,61.9,74.2,93.8,118,70.6,85,65.9,75.1,133,102,59.7,117
"Cc1cc(Nc2cc(N3CCN(C)CC3)nc(Sc3ccc(NC(=O)C4CC4)cc3)n2)n[nH]1 [Tozasertib] + CCc1ccc(CCOc2ccc(CC3SC(=O)NC3=O)cc2)nc1 [pioglitazone] (first compound 0.006 µM, partner dose 2 µM)",66.6,48.8,96.2,,335,80.2,96.8,71,87.8,,148,229,70.9,158,98.9,34.8,33.8,133,
